Taken from: PubChem BioAssay AID686943 (Drosophila RNAi Screening Center, 2013)

- Test: 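Knockdowns that increase or decrease active ERK after insulin receptor stimulation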 (primary screen)
- System: Drosophila S2R+ haemocyte-like cells expressing YFP-tagged ERK (Rolled)
- Knock-down reagent: long dsRNA against Drosophila genes
- Treatment: insulin stimulation versus unstimulated cells; dose and duration not given
- Measured: 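Antibody staining for doubly phosphorylated ERK divided by ERK-YFP signal, as plate z-scores, in insulin-treated and untreated cells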
- Direction: replicate 1, z-score of dpERK with insulin: higher = more active ERK per ERK-YFP after insulin
In all, the deposit lists about 23,000 reagents; this is an unselected part of those that have a named target and a result. 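Extra replicates exist only for a retested subset of genes; insulin dose and duration not given; both raised and lowered dpERK matter.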 Further read-outs or replicates are left out here. The record does not give: the amount of reagent, the time to read-out.

How did the screen score CG6204 (GeneID 42877) [DRSC15991]?
replicate 1, z-score of dpERK with insulin: 0.12

How did the screen score scf (GeneID 38145) [DRSC08735]?
replicate 1, z-score of dpERK with insulin: -0.24

For Mal-A4 (GeneID 35827) [DRSC07236], how do the results read?
replicate 1, z-score of dpERK with insulin: -0.59

For Cyp28d2 (GeneID 33748) [DRSC03299], how do the results read?
replicate 1, z-score of dpERK with insulin: 1.93

What did the screen give for Ufsp2 (GeneID 39687) [DRSC10231]?
replicate 1, z-score of dpERK with insulin: -0.22

For CG30431 (GeneID 35549) [DRSC04902], how do the results read?
replicate 1, z-score of dpERK with insulin: 0.02

For CG30431 (GeneID 35549) [DRSC04904], what was measured?
replicate 1, z-score of dpERK with insulin: 0.34

How did the screen score CG42579 (GeneID 8674025) [DRSC20391]?
replicate 1, z-score of dpERK with insulin: -0.66

For BomBc1 (GeneID 37099) [DRSC06501], what was measured?
replicate 1, z-score of dpERK with insulin: 0.73

What is on record for CG12607 (GeneID 38547) [DRSC08287]?
replicate 1, z-score of dpERK with insulin: 1.27

With CG3847 (GeneID 31577) [DRSC17444], what was measured?
replicate 1, z-score of dpERK with insulin: -0.95

Which result is listed for CG3847 (GeneID 31577) [DRSC18327]?
replicate 1, z-score of dpERK with insulin: 0.27

Which result is listed for Rca1 (GeneID 33959) [DRSC03407]?
replicate 1, z-score of dpERK with insulin: -1.67

What is on record for s-cup (GeneID 36371) [DRSC06277]?
replicate 1, z-score of dpERK with insulin: 1.27

What did the screen give for s-cup (GeneID 36371) [DRSC06278]?
replicate 1, z-score of dpERK with insulin: 0.4

Which result is listed for CG3529 (GeneID 39093) [DRSC10369]?
replicate 1, z-score of dpERK with insulin: 0.42

How did the screen score mfas (GeneID 41455) [DRSC16997]?
replicate 1, z-score of dpERK with insulin: -0.53

With Arl4 (GeneID 43771) [DRSC17156], what was measured?
replicate 1, z-score of dpERK with insulin: -0.01

With CG10384 (GeneID 37567) [DRSC03933], what was measured?
replicate 1, z-score of dpERK with insulin: 0.15

For CG10384 (GeneID 37567) [DRSC04067], what was measured?
replicate 1, z-score of dpERK with insulin: -0.38

What is on record for Ptpmeg2 (GeneID 31907) [DRSC18277]?
replicate 1, z-score of dpERK with insulin: -1.53

For Ptpmeg2 (GeneID 31907) [DRSC18278], how do the results read?
replicate 1, z-score of dpERK with insulin: 1.02

Which result is listed for fray (GeneID 44233) [DRSC16950]?
replicate 1, z-score of dpERK with insulin: 0.88

With lcs (GeneID 33120) [DRSC20580], what does the deposit list?
replicate 1, z-score of dpERK with insulin: 0.46

With PolZ2 (GeneID 40677) [DRSC12325], what was measured?
replicate 1, z-score of dpERK with insulin: 0.15

For EloC (GeneID 37237) [DRSC07423], what does the deposit list?
replicate 1, z-score of dpERK with insulin: 0.06

With CG31886 (GeneID 326170) [DRSC03248], how do the results read?
replicate 1, z-score of dpERK with insulin: 0.19

What did the screen give for CG14543 (GeneID 43167) [DRSC14887]?
replicate 1, z-score of dpERK with insulin: -1.89

For CG4239 (GeneID 32606) [DRSC19885], what was measured?
replicate 1, z-score of dpERK with insulin: -1.15

With CG31091 (GeneID 318591) [DRSC15933], how do the results read?
replicate 1, z-score of dpERK with insulin: 0.67

For RpL12 (GeneID 45329) [DRSC04344], how do the results read?
replicate 1, z-score of dpERK with insulin: -3.28

Reformatted: entries from further up
target gene | dsRNA | replicate 1, z-score of dpERK with insulin
CG3529 (GeneID 39093) | DRSC10369 | 0.42
mfas (GeneID 41455) | DRSC16997 | -0.53
Arl4 (GeneID 43771) | DRSC17156 | -0.01
